Construct, isoform or probe ends are uncertain for at least one entry. Results from cells or extracts need not show a direct contact. For some assays here: A negative result means that nothing was seen under these conditions.
Assays:
[1] = tested on: RF-X (X-box binding transcription factor + nuclear extract); experiment: EMSA; conditions: protein in an extract; protein details: Raji cell nuclear extract; variant of DRA X-box probe (AX, extended X-box)
[2] = tested on: RF-X (X-box binding transcription factor + nuclear extract); experiment: competition with a labelled probe; conditions: competes with hot AX, protein in an extract, protein details: Raji cell nuclear extract

Sequence | binding result [1] | binding result ([2]; variant of DRA X-box probe (AX, extended X-box)) | binding result ([2]; folded or branched DNA)
CCCCTAGCAACAGATG (double strand) [16 bp X-box] | no binding | binds | –
CTAGGGGTTTTCCCCTAGCAACAGATGTTTTCATCTGTTG [unligated RF-X decoy] | – | – | binds
CTAGGGGTTTTCCCCTAGCAACAGATGTTTTCATCTGTTG [RF-X decoy (ligated dumbbell, 40-mer)] | – | – | binds
CTAGGGGTTTTTCCCCTAGCAACAGATGTTTTTCATCTGTTG [RF-X decoy T5 (ligated)] | – | – | binds

Reference: patent publication US5859226
